Assay results reported in PubChem BioAssay AID1347076 (National Center for Advancing Translational Sciences (NCATS), 2019).
About 13,000 (3.2%) of roughly 400,000 compounds were called active. The shares of active, inactive and inconclusive entries below differ from those in the screen. Calls come from the whole dose curve; as a rule, active = well fitted cell-killing curve with a large enough effect; inconclusive = small, poorly fitted or top-dose-only effect, or effect the other way; inactive = flat fitted curve, though single readings scatter. Where the call is inconclusive, the potency comes from a doubtful curve fit.

assay: qHTS assay for MDR1-selective chemotherapeutics: Primary screen using the drug-selected MDR subline cells KB-V1; details: KB-V1 MDR cells viability, CellTiter-Glo, 72 h; activity change, negative = cytotoxicity: at 46.1 µM (top of the series); note: nearly all actives have a fitted effect of over 60% in size
How it was run: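 Compound-treated KB-V1 multidrug-resistant cells, 72 h, 37 degrees C; viability by CellTiter-Glo. Fitted qHTS curves give the values.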
% is set by controls: 0 for no effect and ±100 for the full control effect; potency is the fitted concentration of half-maximal effect.

Which Potency does the source give for C/C(=N\NC(=O)c1ccccc1C)c1cccnc1 here?
Its Potency is inconclusive: 25.9 µM [cytotoxic, single point].

With COc1ccc(CCC(=O)NCc2cn3ccc(C)cc3n2)cc1 as the compound, how does the Potency read?
The Potency was inconclusive: 0.0058 µM [rising, full curve, poor fit].

Which “activity change, negative = cytotoxicity” value does the source give for c1ccc(C[C@H]2CN=C(Nc3ccccc3)N2CCCC2CCCC2)cc1 here?
Its value is inactive: 0%.

For O=S(=O)(c1ccc(F)cc1)N1CCC(n2cnc3ccccc32)CC1, which Potency is on record?
The Potency was inconclusive: 7.31 µM [cytotoxic, partial curve].

For COc1ccc(Cl)cc1NC(=O)CS(=O)(=O)c1cccc2nsnc12, which Potency is on record?
The Potency was inconclusive: 4.61 µM [cytotoxic, full curve].

Which “activity change, negative = cytotoxicity” value does the source give for O=C(OCC(=O)N1CCN(c2ccccc2)CC1)c1ccccc1NCCO here?
The value was inactive: -3.03%.

With COC(=O)CSc1nnc(CNS(=O)(=O)c2ccc(C)cc2)n1C as the compound, how does the Potency read?
Its Potency is inconclusive: 32.6 µM [rising, single point].

For COc1ccc(N2CCN(S(=O)(=O)c3cc(C)ccc3OC)CC2)cc1, which “activity change, negative = cytotoxicity” value is on record?
The value was inactive: 13.9%.

For N#Cc1nc(-c2ccccc2F)oc1NCCc1ccccc1, which Potency is on record?
Its Potency is inconclusive: 23.1 µM [cytotoxic, single point].

For CCN(CC)CCNCC(=O)Nc1ccc(Oc2ccccc2)cc1, which Potency is on record?
Its Potency is inconclusive: 20.6 µM [cytotoxic, partial curve, poor fit].

With Cc1ccc(NC(=O)C2CCCN(S(=O)(=O)c3cccc4cccnc34)C2)cc1Cl (stereo unspecified) as the compound, how does the “activity change, negative = cytotoxicity” value read?
The value was inactive: 4.99%.

Which Potency does the source give for CCCC(=O)Nc1cc2c3c(c1)CCN3C(=O)CC2 here?
Its Potency is inconclusive: 20.6 µM [rising, partial curve, poor fit].

For Cc1c(-n2cc(C(=O)O)c(=O)c3cc(F)c(N4CCCC4)c(F)c32)c(=O)n(-c2ccccc2)n1C, which “activity change, negative = cytotoxicity” value is on record?
Its value is inactive: 1.03%.

With CCn1c(SCC(=O)c2ccccc2)nnc1-c1cccs1 as the compound, how does the Potency read?
The Potency was inconclusive: 11.6 µM [cytotoxic, partial curve].

With COc1ccc(C(=O)/C=C/c2ccc(N3CCCCC3)c([N+](=O)[O-])c2)cc1 as the compound, how does the Potency read?
The Potency was inconclusive: 20.6 µM [cytotoxic, single point].

For CC1CCCC(NC(=S)NC(=O)c2ccco2)C1C (stereo unspecified), which Potency is on record?
Its Potency is active: 18.4 µM.

Which Potency does the source give for COc1ccc(CN(C(=O)c2ccc(-c3ccccc3)[nH]2)C(C(=O)NC(C)(C)C)c2ccncc2)cc1 (stereo unspecified) here?
Its Potency is active: 11.6 µM.

For CCCCN(CC)C(=O)Cn1c(=O)n(-c2ccc(OCC)cc2)c(=O)c2c3c(sc21)CCC3, which Potency is on record?
The Potency was inconclusive: 18.4 µM [rising, single point].

With COc1ccccc1NC(=O)NC1(C(=O)N2CCC(O)CC2)CCCCC1 as the compound, how does the Potency read?
The Potency was inconclusive: 29.1 µM [rising, partial curve, poor fit].

For CCOc1ccc(NC(=O)c2cccc3c2C(=O)N(Cc2cccnc2)C3)cc1, which Potency is on record?
The Potency was inconclusive: 35.5 µM [cytotoxic, single point].

With CCCN(CC(=O)Nc1ccc(Cl)cc1Cl)C(=O)c1ccc(=O)[nH]c1 as the compound, how does the “activity change, negative = cytotoxicity” value read?
Its value is inactive: 0%.

Which “activity change, negative = cytotoxicity” value does the source give for COc1ccc2nc(N(CCN(C)C)C(=O)/C=C/c3cccs3)sc2c1 here?
Its value is inactive: -10.2%.

Which Potency does the source give for C#CCOCCOCCOCCNc1nc(N2CCN(C(=O)CCCCCCCCCCNC(=O)Cn3cc(C[C@@H](C)O)nn3)CC2)nc(N2CCN(C(=O)CCCCCCCCCCNC(=O)[C@H](CO)n3cc(CCCSC)nn3)CC2)n1 here?
The Potency was inconclusive: 16.4 µM [rising, partial curve].

Which “activity change, negative = cytotoxicity” value does the source give for O=C(N/N=C/c1cc([N+](=O)[O-])ccc1O)C1CC1 here?
The value was inactive: -11.9%.

With CCOc1ccccc1/C=N/n1c(COc2ccccc2)n[nH]c1=S as the compound, how does the Potency read?
Its Potency is inconclusive: 5.8 µM [rising, full curve].

With Cn1c(SCC(=O)Nc2ccc(F)cc2)nc2c(c1=O)SCC2 as the compound, how does the Potency read?
Its Potency is inconclusive: 11.6 µM [cytotoxic, partial curve].

Which Potency does the source give for Cc1ccccc1NC(=O)c1ccccc1O here?
The Potency was inconclusive: 29.1 µM [cytotoxic, single point].

With NC(c1csc(Nc2ccccn2)n1)C1CCCCC1 (stereo unspecified) as the compound, how does the “activity change, negative = cytotoxicity” value read?
The value was inactive: -6.83%.

Which “activity change, negative = cytotoxicity” value does the source give for Fc1ccc(COc2cccc3cccnc23)cc1 here?
Its value is inactive: 0%.

With COc1cc(OC)c(C2C=C(C(=O)O)Nc3ncnn32)cc1OC (stereo unspecified) as the compound, how does the Potency read?
Its Potency is inconclusive: 2.31 µM [rising, partial curve, poor fit].

For O=C(Nc1ccccc1Cl)c1cc(C2CCCCN2C(=O)CCc2ccccc2)on1 (stereo unspecified), which “activity change, negative = cytotoxicity” value is on record?
Its value is inactive: -3.72%.

For CC(=O)c1cccc(-n2c(=O)c3c4c(sc3n(Cc3ccccc3Cl)c2=O)CN(C(C)=O)CC4)c1, which “activity change, negative = cytotoxicity” value is on record?
Its value is inactive: -2.25%.

Which Potency does the source give for O=C(CCc1nc(-c2ccccc2F)no1)Nc1cccc(C(F)(F)F)c1 here?
The Potency was inconclusive: 29.1 µM [cytotoxic, single point].

For Cc1ccc(C)c(N2CCN(C(=O)c3cccc(-n4c(C)nc5cccnc54)c3)CC2)c1, which Potency is on record?
Its Potency is inconclusive: 4.11 µM [cytotoxic, full curve].

For CN(C)c1ccc(C=c2c3cc(O)ccc3n3c2cc(-c2ccccc2)[n+]3C)cc1, which activity change, negative = cytotoxicity is on record?
The activity change, negative = cytotoxicity was inconclusive: -59.6%.

Which “activity change, negative = cytotoxicity” value does the source give for CCN(CC)C(=O)C1=C(C)N(Cc2ccccc2)C(=O)C(CC(=O)NCCCN(C)C)C1 (stereo unspecified) here?
The value was inactive: -18.8%.

For CSc1nn2c(C(F)(F)F)cc(C(F)(F)F)nc2c1C(N)=O, which “activity change, negative = cytotoxicity” value is on record?
Its value is inactive: 12%.

With COc1ccc(C(=O)Nc2cccc(-c3csc(C)n3)c2)cc1S(=O)(=O)N1CCCC1 as the compound, how does the Potency read?
The Potency was inconclusive: 29.1 µM [cytotoxic, single point].

For O=C(Nc1ccccc1)OCCN1CCN(Cc2ccccc2)CCC1=O, which “activity change, negative = cytotoxicity” value is on record?
Its value is inactive: -22.1%.

With Cc1ccc(-n2ncc3c(NNC(=O)c4cccs4)ncnc32)cc1 as the compound, how does the Potency read?
The Potency was inconclusive: 18.4 µM [cytotoxic, single point].

With CCOc1cc(/C=N/NC(=S)Nc2ccccc2C(F)(F)F)ccc1OCC(=O)N1CCOCC1 as the compound, how does the Potency read?
The Potency was inconclusive: 5.8 µM [cytotoxic, partial curve].

With CCOc1ccc(OCC)c(NC(=O)c2cc(C)nc3c2c(C)nn3-c2cccc(Cl)c2C)c1 as the compound, how does the Potency read?
Its Potency is inconclusive: 32.6 µM [rising, single point].

For Cc1nn2c(C(F)(F)F)cc(-c3ccc(Cl)cc3)nc2c1C(=O)N1CCOCC1, which Potency is on record?
The Potency was inconclusive: 5.17 µM [cytotoxic, partial curve, poor fit].

Which Potency does the source give for O=C(CN1C(=O)c2cccc3cccc1c23)N1CCN(Cc2ccc3c(c2)OCO3)CC1 here?
The Potency was inconclusive: 11.6 µM [cytotoxic, partial curve].

With O=C(CCCCCN1C(=O)c2cccc3cccc(c23)C1=O)NCc1cccnc1 as the compound, how does the Potency read?
Its Potency is inconclusive: 23.1 µM [cytotoxic, single point].

Which Potency does the source give for O=C(Nc1ccn(-c2ccccc2)n1)c1ccc(S(=O)(=O)N2CCCCCC2)cc1 here?
Its Potency is inconclusive: 29.1 µM [cytotoxic, single point].

Which “activity change, negative = cytotoxicity” value does the source give for COc1ccccc1N(CC(=O)Nc1cccc(C(F)(F)F)c1)S(C)(=O)=O here?
Its value is inactive: 10%.

With COc1cc(NC(=O)COc2ccc(-n3ccnc3)cc2)cc(OC)c1 as the compound, how does the Potency read?
The Potency was inconclusive: 16.4 µM [cytotoxic, single point].

For Cc1oncc1-c1csc(-c2ccccc2)n1, which Potency is on record?
Its Potency is inconclusive: 9.2 µM [rising, partial curve].

Which Potency does the source give for CCc1ccc(-c2nc(CSCC(=O)NCCCN3CCCC3=O)c(C)o2)cc1 here?
Its Potency is active: 16.4 µM.

With CN(C)c1ccc(C2C3C(=O)N(c4ccc(C(=O)O)cc4)C(=O)C3ON2c2ccccc2)cc1 (stereo unspecified) as the compound, how does the Potency read?
Its Potency is inconclusive: 25.9 µM [rising, single point].

With COc1ccc(OC)c(NC(=O)CN2C(=O)CC(c3ccco3)Sc3ccccc32)c1 (stereo unspecified) as the compound, how does the Potency read?
The Potency was inconclusive: 13 µM [cytotoxic, partial curve].

Which Potency does the source give for O=C(COc1ccc(Cl)cc1)Nc1cc(-c2ccccc2)no1 here?
The Potency was inconclusive: 16.4 µM [rising, partial curve, poor fit].

Which Potency does the source give for C#CCN1C=CC(=O)[C@@H](O)[C@H]1c1ccccc1Br here?
The Potency was inconclusive: 1.16 µM [cytotoxic, full curve].

Which Potency does the source give for CC(=O)C1=C(C)N(Cc2ccco2)C(=O)C1(NC(=O)C1CCCCC1)C(F)(F)F (stereo unspecified) here?
The Potency was active: 18.4 µM.

For Cc1cc(N2CCCC2)ccc1/C=C1\NC(=S)N(C)C1=O, which Potency is on record?
Its Potency is inconclusive: 20.6 µM [cytotoxic, partial curve].

With CC(=O)Nc1ccc(SCC(=O)Nc2ccc3c(c2)OCCO3)cc1 as the compound, how does the “activity change, negative = cytotoxicity” value read?
Its value is inactive: 24.2%.

With CC(=O)Nc1ccc(NC2=C/C(=N/S(=O)(=O)c3cccs3)c3ccccc3C2=O)cc1 as the compound, how does the “activity change, negative = cytotoxicity” value read?
Its value is inactive: 0%.

With O=C(Nc1ccc(N2CCN(Cc3ccccc3Cl)CC2)cc1)c1cccnc1 as the compound, how does the Potency read?
The Potency was inconclusive: 9.2 µM [cytotoxic, partial curve].

With C=CCOc1ccc(/C=N/NC(=O)c2cc3c(OC)cc(OC)cc3[nH]2)cc1 as the compound, how does the “activity change, negative = cytotoxicity” value read?
Its value is inactive: -32.7%.

With CCn1c(=S)[nH]c2cc(S(=O)(=O)N3CCCCC3)ccc21 as the compound, how does the Potency read?
Its Potency is active: 13 µM.

With Cc1ncsc1C(=O)N1CCCC(C(=O)c2ccc3ccccc3c2)C1 (stereo unspecified) as the compound, how does the Potency read?
The Potency was inconclusive: 29.1 µM [cytotoxic, single point].

For CN1OC[C@@H]2CN(C(=O)c3ccco3)[C@H](c3ccc(-c4ccc(C#N)cc4)cc3)C[C@@H]21, which Potency is on record?
The Potency was inconclusive: 29.1 µM [rising, partial curve, poor fit].

For COc1ccc(N2CCN(CC(O)COc3ccccc3C(C)(C)C)CC2)cc1 (stereo unspecified), which “activity change, negative = cytotoxicity” value is on record?
Its value is inactive: 4.91%.

With CCN(c1ccc(OC)cc1)S(=O)(=O)c1c(C(=O)N2CCCCCC2)c(C)n(C)c1C as the compound, how does the “activity change, negative = cytotoxicity” value read?
Its value is inactive: -2.45%.

For COc1ccc(N2CCN(CCNS(=O)(=O)c3ccc(C)cc3)CC2)cc1, which “activity change, negative = cytotoxicity” value is on record?
The value was inactive: -19.5%.

With Cc1ccccc1C(=O)NCCCNC(=O)c1ccccn1 as the compound, how does the “activity change, negative = cytotoxicity” value read?
Its value is inactive: 26.7%.

For CC(C)CCC(CCN1CCCC1)c1ccc2c(c1)OCO2 (stereo unspecified), which “activity change, negative = cytotoxicity” value is on record?
Its value is inactive: -25%.

Which Potency does the source give for CCN(CCCNc1ncnc2nc[nH]c12)c1cccc(C)c1 here?
Its Potency is inconclusive: 32.6 µM [cytotoxic, single point].

For Cc1nnc(NC(=O)c2cccc(S(=O)(=O)N(C)c3cccc(Cl)c3)c2)s1, which “activity change, negative = cytotoxicity” value is on record?
The value was inactive: -4.25%.

For O=C(Cc1cc2ccccc2o1)NCc1ccc(F)cc1, which Potency is on record?
The Potency was inconclusive: 25.9 µM [cytotoxic, single point].
